In publication PMC5258865:
Results are given in words; binding and its absence hold for the method and conditions named. Tags and fused reporters may be left off the sequences shown.

Target: OsASR5 (abscisic acid, stress and ripening protein 5), BD (GAL4-binding domain)-OsASR5 fusion (rice (Oryza sativa L. ssp. japonica)) (UniProt Q53JF7)
Assay: two-hybrid; homodimerisation test of OsASR5 in yeast (Figure S8)

- binding: no binding
B1: OsASR5 (abscisic acid, stress and ripening protein 5), BD (GAL4-binding domain)-OsASR5 fusion (protein, UniProt Q53JF7 1-138)
chain: MAEEKHHHHLFHHKKDDEPATGVDSYGEGVYTSETVTTEVVAGGQDEYERYKKEEKQHKHKQHLGEAGALAAGAFALYEKHEAKKDPENAHRHKITEEIAATAAVGAGGYAFHEHHEKKKDHKSAEESTGEKKHHLFG
